In patent US20060009380A1:
Results are given in words; binding and its absence hold for the method and conditions named. Some results given as binding are weak or reduced against the parent protein; the word gives no strength.

By UniProt entry, the sequences of proteins in these tests, tags left out. Where a name states a change or a piece, a line headed by the entry shows the natural chain unless it says otherwise. Residues count along the entry.
UniProt P04792: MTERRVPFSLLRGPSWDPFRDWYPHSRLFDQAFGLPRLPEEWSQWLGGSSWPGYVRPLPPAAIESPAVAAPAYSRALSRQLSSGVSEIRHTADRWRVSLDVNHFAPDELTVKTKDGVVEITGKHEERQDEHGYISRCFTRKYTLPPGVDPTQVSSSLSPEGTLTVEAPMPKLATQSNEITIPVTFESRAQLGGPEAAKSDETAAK
UniProt P49862, residues 30-253: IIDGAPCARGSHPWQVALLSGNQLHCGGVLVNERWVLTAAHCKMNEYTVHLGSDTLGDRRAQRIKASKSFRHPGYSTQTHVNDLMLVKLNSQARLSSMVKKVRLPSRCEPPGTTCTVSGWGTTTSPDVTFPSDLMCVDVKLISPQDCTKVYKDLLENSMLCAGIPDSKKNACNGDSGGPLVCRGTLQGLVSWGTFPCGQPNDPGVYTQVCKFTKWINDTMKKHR
UniProt P07355, residues 2-339: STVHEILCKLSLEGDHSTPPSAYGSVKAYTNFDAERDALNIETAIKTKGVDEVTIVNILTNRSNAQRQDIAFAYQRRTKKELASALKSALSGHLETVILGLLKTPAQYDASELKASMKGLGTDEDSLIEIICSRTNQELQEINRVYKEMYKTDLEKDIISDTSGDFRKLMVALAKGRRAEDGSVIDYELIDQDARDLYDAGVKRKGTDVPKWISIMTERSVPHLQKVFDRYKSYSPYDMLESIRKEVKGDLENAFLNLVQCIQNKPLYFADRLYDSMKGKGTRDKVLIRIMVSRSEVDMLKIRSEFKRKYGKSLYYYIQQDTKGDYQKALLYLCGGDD
UniProt P47929: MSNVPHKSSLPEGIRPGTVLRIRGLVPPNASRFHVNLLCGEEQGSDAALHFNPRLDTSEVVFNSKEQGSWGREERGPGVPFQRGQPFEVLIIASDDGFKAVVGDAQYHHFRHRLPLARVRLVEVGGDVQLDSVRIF
UniProt Q9NZT1: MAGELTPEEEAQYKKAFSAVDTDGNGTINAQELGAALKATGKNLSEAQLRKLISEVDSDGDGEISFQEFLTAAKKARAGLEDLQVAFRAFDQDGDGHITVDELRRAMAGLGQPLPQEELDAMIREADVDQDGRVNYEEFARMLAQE

Columns and labels:
Assay in all cases: other experiments, method not described
Heat Shock P 27 = Heat Shock P 27 (UniProt P04792)
MRP14 or calgranulin B = biological target: T1, MRP14 or calgranulin B (UniProt P06702)
T1 sequence (looked up): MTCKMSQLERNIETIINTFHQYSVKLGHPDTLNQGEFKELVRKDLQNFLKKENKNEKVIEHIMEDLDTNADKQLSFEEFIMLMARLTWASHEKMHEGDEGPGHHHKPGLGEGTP

SCCE = SCCE (UniProt P49862)
annexin 2 = annexin 2 (UniProt P07355)
galectin 7 = galectin 7 (UniProt P47929)

binding (Heat Shock P 27): binds | binding (MRP14 or calgranulin B): binds | binding (SCCE): binds | binding (annexin 2): binds | binding (galectin 7): binds
Substance: CLSP (calmodulin-like skin protein), the polypeptide of the invention (from UniProt Q9NZT1 2-146)
